Source: patent publication EP0299975B1, “COMPOSITION FOR ARRESTING ANGIOGENESIS AND CAPILLARY, CELL OR MEMBRANE LEAKAGE” (Angiogenics Limited, priority 1986, dated 1987)
At least one compound was matched to its structure with a doubt left.

System: angiogenesis
Experiment: Steroids tested with heparin and heparin fragments against angiogenesis
Source text: Deltacortisone has not previously been disclosed for use in combination with heparin fragments generally, or pentosan polysulfate.

Structure (SMILES) | overcoming angiogenesis
C[C@]12CC[C@H]3[C@@H](CCC4=CC(=O)CC[C@@]43C)[C@@H]1CC[C@@H]2C(=O)CO [desoxycorticosterone] | ineffective
C[C@@H]1C[C@H]2[C@@H]3CCC4=CC(=O)C=C[C@]4(C)[C@@]3(F)[C@@H](O)C[C@]2(C)[C@@]1(O)C(=O)CO [dexamethasone] | ineffective
